Measured values taken from patent US8735575B2, “Phenoxazine derivatives and methods of use thereof” (Washington University, priority 2010, dated 2014).

assay: Fluorescent intensity of compound at 10 uM in H2O; type: physicochemical; settings: resorufin = 1

Row | Structure (SMILES) | Fluorescent Intensity Relative
1 | O=c1ccc2nc3ccc(OCc4ccccc4)cc3oc-2c1 [Benzyloxy-resorufin] | 0.08
2 | CCOc1ccc2nc3ccc(=O)cc-3oc2c1 [Ethoxy-resorufin] | 0.65
3 | COc1ccc2nc3ccc(=O)cc-3oc2c1 [Methoxy-resorufin] | 0.52
4 | CCCCCOc1ccc2nc3ccc(=O)cc-3oc2c1 [Pentoxy-resorufin] | 0.11
5 | CC(=O)Oc1ccc2nc3ccc(=O)cc-3oc2c1 [Resorufin acetate] | 0.14
6 | C#COc1ccc2nc3ccc(=O)cc-3oc2c1 [WC-5-1] | 0.29
7 | O=c1ccc2nc3ccc(OCCF)cc3oc-2c1 [WC-5-2] | 0.21
8 | O=c1ccc2nc3ccc(OCc4cn(CCF)nn4)cc3oc-2c1 [WC-5-3] | 0.62
9 | COc1cccc(COc2ccc3nc4ccc(=O)cc-4oc3c2)c1 [WC-5-4] | 0.10
10 | COc1ccc(COc2ccc3nc4ccc(=O)cc-4oc3c2)cc1 [WC-5-5] | 0.08
11 | O=c1ccc2nc3ccc(OCc4ccc(OCCF)cc4)cc3oc-2c1 [WC-5-7] | 0.07
